Our source for the binding values is article PMC7206140.

Protein sequences, listed by entry. Tags and fused reporters are not part of them. Residues count along the entry.
UniProt P10809, residues 27-573: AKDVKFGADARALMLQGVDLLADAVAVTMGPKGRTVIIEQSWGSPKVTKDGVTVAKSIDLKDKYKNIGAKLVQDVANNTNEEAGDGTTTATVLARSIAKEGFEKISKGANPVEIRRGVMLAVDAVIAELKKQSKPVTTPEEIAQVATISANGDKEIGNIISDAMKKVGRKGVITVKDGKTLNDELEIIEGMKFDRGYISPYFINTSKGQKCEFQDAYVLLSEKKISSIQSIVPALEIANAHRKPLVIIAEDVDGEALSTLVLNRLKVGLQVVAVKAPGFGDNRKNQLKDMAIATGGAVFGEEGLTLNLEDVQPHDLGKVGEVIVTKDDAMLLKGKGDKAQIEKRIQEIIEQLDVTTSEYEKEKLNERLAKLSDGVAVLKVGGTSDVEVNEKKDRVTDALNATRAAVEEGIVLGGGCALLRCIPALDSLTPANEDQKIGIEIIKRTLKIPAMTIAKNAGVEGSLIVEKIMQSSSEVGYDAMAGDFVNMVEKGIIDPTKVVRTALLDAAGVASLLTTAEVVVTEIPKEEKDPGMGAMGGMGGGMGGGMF

These are yes or no findings as the source states them, for the method shown. In cells and extracts the contact can be indirect. These calls come from enrichment with a bait or labelling near it, and not all partners need be listed. Sequences can lack the tags named with a protein.

The target of this test is T1, GFP-tagged NT5DC2 (5'-Nucleotidase domain containing 2) (human) (UniProt Q9H857).
T1 sequence: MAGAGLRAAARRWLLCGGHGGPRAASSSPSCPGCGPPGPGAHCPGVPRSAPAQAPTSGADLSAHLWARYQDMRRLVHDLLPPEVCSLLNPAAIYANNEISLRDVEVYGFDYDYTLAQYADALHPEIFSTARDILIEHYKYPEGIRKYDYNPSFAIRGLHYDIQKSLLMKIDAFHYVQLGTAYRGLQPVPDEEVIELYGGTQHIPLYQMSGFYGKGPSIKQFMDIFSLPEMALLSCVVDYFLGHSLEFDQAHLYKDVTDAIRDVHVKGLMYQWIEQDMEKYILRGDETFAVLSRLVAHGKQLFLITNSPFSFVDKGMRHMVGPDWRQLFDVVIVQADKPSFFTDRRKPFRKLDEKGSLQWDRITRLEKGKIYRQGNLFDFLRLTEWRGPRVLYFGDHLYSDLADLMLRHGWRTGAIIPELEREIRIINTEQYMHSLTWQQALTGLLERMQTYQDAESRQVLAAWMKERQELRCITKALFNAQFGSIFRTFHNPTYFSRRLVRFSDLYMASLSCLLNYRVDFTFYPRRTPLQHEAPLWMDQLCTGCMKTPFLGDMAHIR
The test is described as follows: affinity purification with mass spectrometry; anti-GFP mAb-coated agarose beads on MHCC97H cells stably overexpressing GFP-NT5DC2 or a GFP vector control; LC-MS/MS, Mascot score over 60; hits overlapped with the HIPPIE database.

For the substance HSPD1 (from UniProt P10809 27-573), the binding result was “binds”.
